Data as given in PubChem BioAssay AID1224827 (NIAID, 2016)

- Screen: 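Retest primary hits on a TNF reporter with six siRNAs per gene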 (follow-up of hits)
- Cell system: RAW264.7 G9 mouse macrophage reporter clone
- Reagents: single siRNA against mouse genes, 100 nM siRNA
- Duration: siRNA for 2 days, then LPS about 16 h
- Challenge: bacterial lipopolysaccharide (LPS), 10 ng/ml, cells fixed after overnight (about 16 h) stimulation
- Detection: 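TNF promoter reporter red fluorescence in nuclei, background subtracted, normalised per plate and to non-targeting control siRNA, as z-scores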
- Reading the numbers: TNF reporter z-score, mean: higher = stronger Tnf promoter reporter signal; gene median z, three same-vendor siRNAs: higher = stronger Tnf reporter signal for the gene
- Rule for the call: 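An siRNA is called active when its mean z-score over replicates is at least +2 or at most -2; control wells get no call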
Here is a random part of about 3,800 reagents. About 2,200 of them (57%) were called active. 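Active means a strong reporter change in either direction; calls are per siRNA, not per gene; qiagen siRNAs gave weaker effects.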 A number with no mark means an inactive call. Reagents against one gene are numbered here. Not all columns of the deposit are shown.

For Hoxa2 #1, what does the deposit list?
TNF reporter z-score, mean: -3.06 (active); gene median z, three same-vendor siRNAs: -4.38

With Hoxa2 #2, what does the deposit list?
TNF reporter z-score, mean: -4.26 (active); gene median z, three same-vendor siRNAs: -4.38

What is on record for Hoxa2 #3?
TNF reporter z-score, mean: -5.47 (active); gene median z, three same-vendor siRNAs: -4.38

With Hoxa2 #4, how do the results read?
TNF reporter z-score, mean: 3.23 (active); gene median z, three same-vendor siRNAs: -0.865

What did the screen give for Hoxa2 #5?
TNF reporter z-score, mean: -0.865; gene median z, three same-vendor siRNAs: -0.865

What did the screen give for Hoxa2 #6?
TNF reporter z-score, mean: -4.34 (active); gene median z, three same-vendor siRNAs: -0.865

How did the screen score Psors1c2 #1?
TNF reporter z-score, mean: -0.519; gene median z, three same-vendor siRNAs: -1.71

For Psors1c2 #2, how do the results read?
TNF reporter z-score, mean: -1.55; gene median z, three same-vendor siRNAs: -1.71

What is on record for Psors1c2 #3?
TNF reporter z-score, mean: -3.84 (active); gene median z, three same-vendor siRNAs: -1.71

Which result is listed for Psors1c2 #4?
TNF reporter z-score, mean: 1.4; gene median z, three same-vendor siRNAs: -1.17

What did the screen give for Psors1c2 #5?
TNF reporter z-score, mean: -0.988; gene median z, three same-vendor siRNAs: -1.17

For Psors1c2 #6, what was measured?
TNF reporter z-score, mean: -1.85; gene median z, three same-vendor siRNAs: -1.17

No new results follow: entries from further up.
Hoxa2 #6 → TNF reporter z-score, mean = -4.34 (active); gene median z, three same-vendor siRNAs = -0.865
Psors1c2 #1 → TNF reporter z-score, mean = -0.519; gene median z, three same-vendor siRNAs = -1.71
Psors1c2 #2 → TNF reporter z-score, mean = -1.55; gene median z, three same-vendor siRNAs = -1.71

The listing continues.
For Ptprn2 #1, what does the deposit list?
TNF reporter z-score, mean: -3.62 (active); gene median z, three same-vendor siRNAs: -4.01

For Ptprn2 #2, what does the deposit list?
TNF reporter z-score, mean: -3.8 (active); gene median z, three same-vendor siRNAs: -4.01

With Ptprn2 #3, how do the results read?
TNF reporter z-score, mean: -4.66 (active); gene median z, three same-vendor siRNAs: -4.01

What did the screen give for Ptprn2 #4?
TNF reporter z-score, mean: 1.13; gene median z, three same-vendor siRNAs: -1

With Ptprn2 #5, how do the results read?
TNF reporter z-score, mean: 0.589; gene median z, three same-vendor siRNAs: -1

What is on record for Ptprn2 #6?
TNF reporter z-score, mean: -3.73 (active); gene median z, three same-vendor siRNAs: -1

With Grap #1, how do the results read?
TNF reporter z-score, mean: -1.09; gene median z, three same-vendor siRNAs: -3.62

For Grap #2, what was measured?
TNF reporter z-score, mean: -3.96 (active); gene median z, three same-vendor siRNAs: -3.62

For Grap #3, how do the results read?
TNF reporter z-score, mean: -4.42 (active); gene median z, three same-vendor siRNAs: -3.62

What did the screen give for Grap #4?
TNF reporter z-score, mean: 1.64; gene median z, three same-vendor siRNAs: 0.211

Which result is listed for Grap #5?
TNF reporter z-score, mean: 0.683; gene median z, three same-vendor siRNAs: 0.211

Which result is listed for Grap #6?
TNF reporter z-score, mean: -2.22 (active); gene median z, three same-vendor siRNAs: 0.211
